Source: PubChem BioAssay AID1273 (Columbia University Molecular Screening Center, 2008)
Some of the results follow. The main result of the screen is listed elsewhere. These columns were measured beside it and carry no call. The list favours compounds with an active or inconclusive main result.

Test: inhibitors of insulin promoter-driven GFP, primary screen, imaging, TRM-6 cells (human fetal islet line), eGFP reporter, cell count (AID 1273;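 note: cells exposed to compound for 48 h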)
Details: measured here: cell count, toxicity, at 2 µM

Which normalized cell count does the source give for CN1CCC(N(C)c2ncnc3ccc(Br)cc23)CC1 here?
The normalized cell count was 153%.

With Cn1c(=O)cc(SCC(=O)N2CCC3(CC2)OCCO3)c2ccc(Cl)cc21 as the molecule, how does the normalized cell count read?
Its normalized cell count is 136%.

Which normalized cell count does the source give for O=c1c2cc(Br)ccc2[nH]c(=S)n1-c1ccccc1 here?
Its normalized cell count is 165%.

For CC1CN(CCc2ccccc2)CC(C)O1 (stereo unspecified), which normalized cell count is on record?
Its normalized cell count is 109%.

For O=C(c1cc2cc3ccc(Cl)cc3nc2o1)N1CCC2(CC1)OCCO2, which normalized cell count is on record?
Its normalized cell count is 143%.

For C[C@H]1O[C@@H](O[C@H]2[C@@H](O)C[C@H](O[C@H]3[C@@H](O)C[C@H](O[C@H]4CC[C@@]5(C)[C@H](CC[C@@H]6[C@@H]5CC[C@]5(C)[C@@H](C7=CC(=O)OC7)CC[C@]65O)C4)O[C@@H]3C)O[C@@H]2C)C[C@H](O)[C@@H]1O, which normalized cell count is on record?
Its normalized cell count is 0.41%.

With CC1=C(C(=O)N2CCC3(CC2)OCCO3)C2(CCC(C)CC2)OC1=O (stereo unspecified) as the molecule, how does the normalized cell count read?
Its normalized cell count is 78.6%.

For CSc1ccc(C(c2c(O)c3ccccc3oc2=O)c2c(C)n(C)n(-c3ccccc3)c2=O)cc1 (stereo unspecified), which normalized cell count is on record?
The normalized cell count was 109%.

For CCCCn1c(O)c(C(CC)=NCc2ccc(F)cc2)c(=O)[nH]c1=O, which normalized cell count is on record?
Its normalized cell count is 23.5%.

Which normalized cell count does the source give for c1ccc2c(c1)Nc1ccccc1S2 here?
The normalized cell count was 150%.

With N/C(=N/[N+](=O)[O-])N1CCN(C(=O)c2ccc(Cl)cc2)CC1 as the molecule, how does the normalized cell count read?
The normalized cell count was 157%.

With Cc1cc2c(C(C)C)c(O)c(O)c(C=O)c2c(O)c1-c1c(C)cc2c(C(C)C)c(O)c(O)c(C=O)c2c1O as the molecule, how does the normalized cell count read?
Its normalized cell count is 46.3%.

With CCn1c(O)c(C=Nc2cc(Cl)ccc2Cl)c(=O)n(CC)c1=O as the molecule, how does the normalized cell count read?
The normalized cell count was 109%.

Which normalized cell count does the source give for CC(Cc1ccccc1)NC(=O)/C=C/C(=O)O (stereo unspecified) here?
Its normalized cell count is 55.8%.

For CN1CSC(=S)N(C)C1, which normalized cell count is on record?
The normalized cell count was 101%.

With CC(C)(C)c1ccc(O)c(CN2CCN(c3ccccc3)CC2)c1 as the molecule, how does the normalized cell count read?
Its normalized cell count is 62.8%.

For COc1ccc(N=Cc2c(O)n(-c3ccc(C)cc3)c(=O)[nH]c2=O)cc1, which normalized cell count is on record?
The normalized cell count was 77.5%.

With CCOC(=O)c1c(-c2ccccc2)oc2ccc(OC(=O)N(C)C)cc12 as the molecule, how does the normalized cell count read?
The normalized cell count was 171%.

For Cc1nn(-c2ccccc2)c2c1C(c1ccc3c(c1)OCO3)SCC(=O)N2 (stereo unspecified), which normalized cell count is on record?
Its normalized cell count is 103%.

Which normalized cell count does the source give for Cc1ccccc1-n1c(-c2ccco2)nc2ccccc2c1=O here?
The normalized cell count was 180%.

For Cc1ccc(-c2cc(-c3ccc(C)cc3)[n+](C)o2)cc1, which normalized cell count is on record?
The normalized cell count was 83%.

Which normalized cell count does the source give for COc1ccc(C(=O)CN2CCOCC2)cc1F here?
Its normalized cell count is 48.3%.

Which normalized cell count does the source give for NC(=O)c1cn(C2OC(CO)C(O)C2O)c2ncnc(N)c12 (stereo unspecified) here?
The normalized cell count was 4.29%.

With CC(=O)C1=C(C)OC(N)=C(C(=O)OC(C)C)C12C(=O)Nc1ccccc12 (stereo unspecified) as the molecule, how does the normalized cell count read?
The normalized cell count was 39.8%.

Which normalized cell count does the source give for CCN1CCN(c2ncnc3ccc(Br)cc23)CC1 here?
Its normalized cell count is 111%.

Which normalized cell count does the source give for COc1ccc(C(c2c(O)c3ccccc3oc2=O)c2c(C)n(C)n(-c3ccccc3)c2=O)cc1 (stereo unspecified) here?
Its normalized cell count is 74.8%.

Which normalized cell count does the source give for O=P(O)(O)COc1ccccc1O here?
The normalized cell count was 67.2%.

For C=CCn1c(O)c(C(C)=Nc2ccc(C(=O)OCC)cc2)c(=O)[nH]c1=O, which normalized cell count is on record?
The normalized cell count was 97.8%.

Which normalized cell count does the source give for O=C(CCC(=O)N1CCC2(CC1)OCCO2)Nc1nnc(C(F)(F)F)s1 here?
Its normalized cell count is 75.9%.

With O=C(C1CC(=O)N(C2CCCCCCC2)C1)N1CCC2(CC1)OCCO2 (stereo unspecified) as the molecule, how does the normalized cell count read?
The normalized cell count was 89.3%.

With CN(C)C(=S)SSC(=S)N(C)C as the molecule, how does the normalized cell count read?
Its normalized cell count is 0%.

Which normalized cell count does the source give for Cc1cc(C=O)c(C)n1C1CCCCC1 here?
The normalized cell count was 74.7%.

Which normalized cell count does the source give for CN(CC(=O)Nc1ccccc1-c1ccccc1)C1CCCCC1 here?
The normalized cell count was 244%.

With CCCCn1c(O)c(C(C)=NC(C)c2ccccc2)c(=O)[nH]c1=O (stereo unspecified) as the molecule, how does the normalized cell count read?
Its normalized cell count is 116%.

For O=c1[nH]c2ccccc2c(=O)n1-c1cccc(Cl)c1, which normalized cell count is on record?
The normalized cell count was 74.9%.

For Fc1ccc(NC2=NCCS2)cc1Cl, which normalized cell count is on record?
The normalized cell count was 113%.

For CC12CN3CC(C)(CN(C1)C31CCOCC1)C2=O, which normalized cell count is on record?
The normalized cell count was 123%.

For CC(=O)NC1CC2CCC(C1)N2 (stereo unspecified), which normalized cell count is on record?
The normalized cell count was 98.9%.

Which normalized cell count does the source give for CC(C)=CCC12CN3CCN(CC(C3)C1=O)C2 here?
The normalized cell count was 98%.

With Nc1nnc(CCN2CCCCC2)s1 as the molecule, how does the normalized cell count read?
The normalized cell count was 40.2%.

With O=S(=O)(c1ccccc1)N1CN2CCN(C2)C1 as the molecule, how does the normalized cell count read?
Its normalized cell count is 100%.

Which normalized cell count does the source give for CN(C)c1cccc2c(C#N)ccc(N(C)C)c12 here?
Its normalized cell count is 42.9%.

With CC(=O)Nc1ccccc1OP1(=O)COc2ccccc2OC1 as the molecule, how does the normalized cell count read?
Its normalized cell count is 40.3%.

With O=C(O)c1cccc2c1NC(c1cccc([N+](=O)[O-])c1)C1CC(Sc3ccccc3[N+](=O)[O-])C(Cl)C21 (stereo unspecified) as the molecule, how does the normalized cell count read?
Its normalized cell count is 173%.

Which normalized cell count does the source give for O=C1CC(C(=O)N2CCC3(CC2)OCCO3)CN1CCc1ccccc1 (stereo unspecified) here?
The normalized cell count was 124%.

For CCN1C(=O)C(=C2C=C(C)N(Cc3ccco3)C(C)=C2)C(=O)N(CC)C1=S, which normalized cell count is on record?
The normalized cell count was 139%.
